Earlier results in US7148248B2, “Method of treating or inhibiting the development of brain inflammation and sepsis” (priority 2002, dated 2006).
At least one structure is not confirmed: it was looked up by name or label, or the drawing left a doubt.

Conditions: cited from earlier work

O=C(Nc1cccc2c(=O)cc(-c3nnn[nH]3)oc12)c1ccc(OCCCCc2ccccc2)cc1 [pranlukast]
crossing of the blood-brain barrier: either do not cross or minimally cross the blood-brain barrier
